Measured values as given in publication PMC5667929.
Results are given in words; binding and its absence hold for the method and conditions named. Binding seen in cells or lysates may run through a third protein. Some entries that bind do so weakly or less than the wild type.

Sequences of proteins named here, by UniProt entry; tags and fusion partners are left off. Residues count along the entry.
UniProt P29555, residues 261-590: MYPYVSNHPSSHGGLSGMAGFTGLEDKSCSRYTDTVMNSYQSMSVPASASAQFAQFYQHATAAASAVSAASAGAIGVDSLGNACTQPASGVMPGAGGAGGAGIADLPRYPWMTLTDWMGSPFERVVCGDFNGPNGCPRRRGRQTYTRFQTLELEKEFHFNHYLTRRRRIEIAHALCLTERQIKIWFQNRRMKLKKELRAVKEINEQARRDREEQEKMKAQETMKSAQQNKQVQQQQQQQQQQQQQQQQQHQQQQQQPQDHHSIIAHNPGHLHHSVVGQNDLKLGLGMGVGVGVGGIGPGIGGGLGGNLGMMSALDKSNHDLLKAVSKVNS
UniProt P13002, residues 551-1333: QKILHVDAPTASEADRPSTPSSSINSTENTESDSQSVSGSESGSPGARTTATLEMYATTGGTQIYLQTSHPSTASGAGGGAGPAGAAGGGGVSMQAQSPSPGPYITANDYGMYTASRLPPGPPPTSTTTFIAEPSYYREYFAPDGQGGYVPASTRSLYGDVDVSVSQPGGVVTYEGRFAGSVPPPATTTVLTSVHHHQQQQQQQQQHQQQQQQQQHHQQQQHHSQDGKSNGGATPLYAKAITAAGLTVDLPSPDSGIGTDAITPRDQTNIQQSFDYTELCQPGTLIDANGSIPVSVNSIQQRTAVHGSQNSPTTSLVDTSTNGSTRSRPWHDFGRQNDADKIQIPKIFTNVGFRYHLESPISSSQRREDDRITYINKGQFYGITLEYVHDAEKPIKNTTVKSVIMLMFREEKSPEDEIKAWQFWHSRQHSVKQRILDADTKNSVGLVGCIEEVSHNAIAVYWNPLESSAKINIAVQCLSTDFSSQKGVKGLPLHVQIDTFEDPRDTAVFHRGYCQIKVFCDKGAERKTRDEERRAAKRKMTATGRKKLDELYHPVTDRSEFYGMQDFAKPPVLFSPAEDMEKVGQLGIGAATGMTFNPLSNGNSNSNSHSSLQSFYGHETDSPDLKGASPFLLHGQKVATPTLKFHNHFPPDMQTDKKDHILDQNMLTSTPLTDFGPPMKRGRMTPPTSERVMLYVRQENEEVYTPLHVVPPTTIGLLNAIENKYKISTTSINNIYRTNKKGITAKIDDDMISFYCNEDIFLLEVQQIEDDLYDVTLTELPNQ

Molecular target: truncated GST tagged AbdA (261 to 590 aa) (Drosophila) (UniProt P29555)
Assay: pull-down; bead bound GST-AbdA or GST incubated with equal amount of His-Grh bacterial lysate for 12 hours at 4°C; SDS-PAGE, blot with anti-His; only the target purified

- binding: binds
Substance: His tagged Grh (551-1333 aa) (from UniProt P13002 551-1333) (domain or fragment)
